This passage reports binding results from article PMC5323046.

By UniProt entry, the sequences of proteins in these tests, tags left out. Residues count along the entry.
UniProt P51159: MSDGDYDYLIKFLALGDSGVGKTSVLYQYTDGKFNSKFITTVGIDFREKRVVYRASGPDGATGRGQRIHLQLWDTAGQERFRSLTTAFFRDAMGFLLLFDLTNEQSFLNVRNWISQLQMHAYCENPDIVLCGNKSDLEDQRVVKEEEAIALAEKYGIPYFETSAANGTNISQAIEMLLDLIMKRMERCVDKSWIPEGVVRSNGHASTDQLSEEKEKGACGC
UniProt Q8NEV8: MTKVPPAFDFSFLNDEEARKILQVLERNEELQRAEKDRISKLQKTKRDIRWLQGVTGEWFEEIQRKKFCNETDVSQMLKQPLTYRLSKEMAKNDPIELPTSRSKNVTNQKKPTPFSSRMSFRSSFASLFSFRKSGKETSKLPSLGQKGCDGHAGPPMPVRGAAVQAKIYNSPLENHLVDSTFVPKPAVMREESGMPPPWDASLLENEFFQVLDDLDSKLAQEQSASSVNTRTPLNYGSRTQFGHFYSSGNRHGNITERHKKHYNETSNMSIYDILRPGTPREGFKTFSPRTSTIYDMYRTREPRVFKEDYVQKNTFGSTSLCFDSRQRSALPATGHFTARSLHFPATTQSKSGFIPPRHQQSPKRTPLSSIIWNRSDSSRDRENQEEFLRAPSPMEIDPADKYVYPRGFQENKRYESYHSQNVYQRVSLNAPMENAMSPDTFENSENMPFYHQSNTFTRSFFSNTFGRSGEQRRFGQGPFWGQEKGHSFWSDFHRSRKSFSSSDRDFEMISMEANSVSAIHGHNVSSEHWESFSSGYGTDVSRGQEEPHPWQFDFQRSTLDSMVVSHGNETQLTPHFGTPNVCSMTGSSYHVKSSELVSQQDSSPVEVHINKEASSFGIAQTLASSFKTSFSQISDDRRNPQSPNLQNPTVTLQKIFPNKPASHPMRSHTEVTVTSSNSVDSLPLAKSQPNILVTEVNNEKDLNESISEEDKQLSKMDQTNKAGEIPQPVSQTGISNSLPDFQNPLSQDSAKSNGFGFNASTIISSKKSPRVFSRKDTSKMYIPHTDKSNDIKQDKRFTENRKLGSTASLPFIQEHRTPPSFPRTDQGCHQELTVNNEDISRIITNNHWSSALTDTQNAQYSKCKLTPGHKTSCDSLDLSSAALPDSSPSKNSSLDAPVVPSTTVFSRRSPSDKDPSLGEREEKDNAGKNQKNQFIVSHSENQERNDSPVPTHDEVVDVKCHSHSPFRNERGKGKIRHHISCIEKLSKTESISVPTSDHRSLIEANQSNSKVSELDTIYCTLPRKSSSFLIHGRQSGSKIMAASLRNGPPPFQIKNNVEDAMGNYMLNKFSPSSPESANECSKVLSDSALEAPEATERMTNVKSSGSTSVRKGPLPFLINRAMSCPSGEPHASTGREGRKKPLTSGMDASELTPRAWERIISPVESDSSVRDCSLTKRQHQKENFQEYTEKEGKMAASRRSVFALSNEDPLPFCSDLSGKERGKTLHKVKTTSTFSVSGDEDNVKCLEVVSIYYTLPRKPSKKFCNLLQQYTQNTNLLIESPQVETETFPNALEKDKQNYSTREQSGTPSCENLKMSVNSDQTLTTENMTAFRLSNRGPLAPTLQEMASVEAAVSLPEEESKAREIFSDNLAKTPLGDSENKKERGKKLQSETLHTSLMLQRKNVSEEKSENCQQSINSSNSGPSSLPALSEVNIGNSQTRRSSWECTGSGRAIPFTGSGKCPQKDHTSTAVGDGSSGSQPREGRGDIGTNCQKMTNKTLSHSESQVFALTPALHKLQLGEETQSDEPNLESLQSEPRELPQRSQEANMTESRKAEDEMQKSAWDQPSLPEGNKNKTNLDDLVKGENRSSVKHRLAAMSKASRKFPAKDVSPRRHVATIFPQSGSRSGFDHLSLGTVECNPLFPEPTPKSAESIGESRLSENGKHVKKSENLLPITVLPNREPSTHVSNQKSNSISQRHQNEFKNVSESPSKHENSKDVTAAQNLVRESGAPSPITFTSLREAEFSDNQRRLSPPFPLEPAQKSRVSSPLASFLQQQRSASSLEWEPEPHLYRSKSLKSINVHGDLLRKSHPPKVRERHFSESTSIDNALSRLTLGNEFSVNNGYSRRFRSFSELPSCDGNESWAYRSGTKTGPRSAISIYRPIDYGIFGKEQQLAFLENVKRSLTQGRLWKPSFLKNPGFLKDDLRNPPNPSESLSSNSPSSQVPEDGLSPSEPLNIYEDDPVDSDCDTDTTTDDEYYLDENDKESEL
UniProt O15321, residues 28-606: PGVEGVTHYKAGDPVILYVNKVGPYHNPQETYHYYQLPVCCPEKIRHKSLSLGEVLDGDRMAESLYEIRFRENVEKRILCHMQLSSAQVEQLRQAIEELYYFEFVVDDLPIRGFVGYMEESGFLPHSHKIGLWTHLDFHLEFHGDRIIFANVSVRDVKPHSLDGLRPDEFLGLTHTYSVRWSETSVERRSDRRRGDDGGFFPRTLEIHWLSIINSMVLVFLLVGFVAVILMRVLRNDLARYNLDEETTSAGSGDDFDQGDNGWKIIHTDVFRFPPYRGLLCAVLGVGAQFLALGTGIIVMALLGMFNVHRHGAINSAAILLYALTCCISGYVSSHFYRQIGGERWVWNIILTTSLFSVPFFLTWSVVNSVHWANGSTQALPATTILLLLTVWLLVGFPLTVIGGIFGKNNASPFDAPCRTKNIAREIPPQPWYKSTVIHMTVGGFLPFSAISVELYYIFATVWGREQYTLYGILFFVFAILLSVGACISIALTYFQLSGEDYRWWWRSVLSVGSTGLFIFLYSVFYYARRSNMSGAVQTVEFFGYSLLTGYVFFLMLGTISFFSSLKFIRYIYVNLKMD
UniProt Q8TDY2: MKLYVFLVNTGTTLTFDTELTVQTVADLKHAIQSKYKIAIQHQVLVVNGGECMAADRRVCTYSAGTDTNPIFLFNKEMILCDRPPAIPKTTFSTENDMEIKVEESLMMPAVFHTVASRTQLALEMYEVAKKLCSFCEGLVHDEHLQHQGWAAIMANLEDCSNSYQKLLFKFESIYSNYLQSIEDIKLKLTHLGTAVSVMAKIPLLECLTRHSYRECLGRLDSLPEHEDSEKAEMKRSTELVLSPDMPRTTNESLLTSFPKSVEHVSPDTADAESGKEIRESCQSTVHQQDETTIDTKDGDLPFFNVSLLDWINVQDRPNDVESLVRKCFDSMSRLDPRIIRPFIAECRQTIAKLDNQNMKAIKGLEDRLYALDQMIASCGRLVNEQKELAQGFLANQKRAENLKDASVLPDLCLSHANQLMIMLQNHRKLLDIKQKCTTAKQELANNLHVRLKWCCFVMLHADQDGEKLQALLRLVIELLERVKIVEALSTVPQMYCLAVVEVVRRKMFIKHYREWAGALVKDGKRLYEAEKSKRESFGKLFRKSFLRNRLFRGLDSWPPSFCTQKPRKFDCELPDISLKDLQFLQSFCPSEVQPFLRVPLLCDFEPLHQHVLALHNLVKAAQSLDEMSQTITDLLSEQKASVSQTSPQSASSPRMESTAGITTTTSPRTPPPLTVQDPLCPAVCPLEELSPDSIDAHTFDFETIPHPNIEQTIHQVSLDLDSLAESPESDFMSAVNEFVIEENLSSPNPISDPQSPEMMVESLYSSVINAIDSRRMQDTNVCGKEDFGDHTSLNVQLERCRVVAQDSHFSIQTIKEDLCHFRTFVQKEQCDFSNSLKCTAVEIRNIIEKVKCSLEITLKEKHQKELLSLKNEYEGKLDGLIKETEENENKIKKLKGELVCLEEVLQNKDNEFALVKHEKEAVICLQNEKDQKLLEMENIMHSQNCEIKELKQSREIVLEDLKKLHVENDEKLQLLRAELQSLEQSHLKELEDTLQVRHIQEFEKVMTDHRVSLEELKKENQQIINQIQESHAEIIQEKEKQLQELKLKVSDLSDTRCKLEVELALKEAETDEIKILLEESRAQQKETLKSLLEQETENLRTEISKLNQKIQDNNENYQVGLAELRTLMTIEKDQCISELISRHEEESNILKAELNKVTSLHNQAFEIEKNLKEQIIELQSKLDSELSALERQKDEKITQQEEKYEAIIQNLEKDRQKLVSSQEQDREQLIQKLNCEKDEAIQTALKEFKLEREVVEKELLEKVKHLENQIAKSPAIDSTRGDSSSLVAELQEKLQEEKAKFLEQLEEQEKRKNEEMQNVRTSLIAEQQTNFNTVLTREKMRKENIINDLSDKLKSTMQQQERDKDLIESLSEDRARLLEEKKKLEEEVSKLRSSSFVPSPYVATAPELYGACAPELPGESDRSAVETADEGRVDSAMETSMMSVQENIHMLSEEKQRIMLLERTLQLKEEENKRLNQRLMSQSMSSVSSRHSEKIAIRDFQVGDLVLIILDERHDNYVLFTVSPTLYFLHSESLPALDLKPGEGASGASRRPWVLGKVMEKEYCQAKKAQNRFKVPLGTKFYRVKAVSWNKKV
UniProt Q96BY7: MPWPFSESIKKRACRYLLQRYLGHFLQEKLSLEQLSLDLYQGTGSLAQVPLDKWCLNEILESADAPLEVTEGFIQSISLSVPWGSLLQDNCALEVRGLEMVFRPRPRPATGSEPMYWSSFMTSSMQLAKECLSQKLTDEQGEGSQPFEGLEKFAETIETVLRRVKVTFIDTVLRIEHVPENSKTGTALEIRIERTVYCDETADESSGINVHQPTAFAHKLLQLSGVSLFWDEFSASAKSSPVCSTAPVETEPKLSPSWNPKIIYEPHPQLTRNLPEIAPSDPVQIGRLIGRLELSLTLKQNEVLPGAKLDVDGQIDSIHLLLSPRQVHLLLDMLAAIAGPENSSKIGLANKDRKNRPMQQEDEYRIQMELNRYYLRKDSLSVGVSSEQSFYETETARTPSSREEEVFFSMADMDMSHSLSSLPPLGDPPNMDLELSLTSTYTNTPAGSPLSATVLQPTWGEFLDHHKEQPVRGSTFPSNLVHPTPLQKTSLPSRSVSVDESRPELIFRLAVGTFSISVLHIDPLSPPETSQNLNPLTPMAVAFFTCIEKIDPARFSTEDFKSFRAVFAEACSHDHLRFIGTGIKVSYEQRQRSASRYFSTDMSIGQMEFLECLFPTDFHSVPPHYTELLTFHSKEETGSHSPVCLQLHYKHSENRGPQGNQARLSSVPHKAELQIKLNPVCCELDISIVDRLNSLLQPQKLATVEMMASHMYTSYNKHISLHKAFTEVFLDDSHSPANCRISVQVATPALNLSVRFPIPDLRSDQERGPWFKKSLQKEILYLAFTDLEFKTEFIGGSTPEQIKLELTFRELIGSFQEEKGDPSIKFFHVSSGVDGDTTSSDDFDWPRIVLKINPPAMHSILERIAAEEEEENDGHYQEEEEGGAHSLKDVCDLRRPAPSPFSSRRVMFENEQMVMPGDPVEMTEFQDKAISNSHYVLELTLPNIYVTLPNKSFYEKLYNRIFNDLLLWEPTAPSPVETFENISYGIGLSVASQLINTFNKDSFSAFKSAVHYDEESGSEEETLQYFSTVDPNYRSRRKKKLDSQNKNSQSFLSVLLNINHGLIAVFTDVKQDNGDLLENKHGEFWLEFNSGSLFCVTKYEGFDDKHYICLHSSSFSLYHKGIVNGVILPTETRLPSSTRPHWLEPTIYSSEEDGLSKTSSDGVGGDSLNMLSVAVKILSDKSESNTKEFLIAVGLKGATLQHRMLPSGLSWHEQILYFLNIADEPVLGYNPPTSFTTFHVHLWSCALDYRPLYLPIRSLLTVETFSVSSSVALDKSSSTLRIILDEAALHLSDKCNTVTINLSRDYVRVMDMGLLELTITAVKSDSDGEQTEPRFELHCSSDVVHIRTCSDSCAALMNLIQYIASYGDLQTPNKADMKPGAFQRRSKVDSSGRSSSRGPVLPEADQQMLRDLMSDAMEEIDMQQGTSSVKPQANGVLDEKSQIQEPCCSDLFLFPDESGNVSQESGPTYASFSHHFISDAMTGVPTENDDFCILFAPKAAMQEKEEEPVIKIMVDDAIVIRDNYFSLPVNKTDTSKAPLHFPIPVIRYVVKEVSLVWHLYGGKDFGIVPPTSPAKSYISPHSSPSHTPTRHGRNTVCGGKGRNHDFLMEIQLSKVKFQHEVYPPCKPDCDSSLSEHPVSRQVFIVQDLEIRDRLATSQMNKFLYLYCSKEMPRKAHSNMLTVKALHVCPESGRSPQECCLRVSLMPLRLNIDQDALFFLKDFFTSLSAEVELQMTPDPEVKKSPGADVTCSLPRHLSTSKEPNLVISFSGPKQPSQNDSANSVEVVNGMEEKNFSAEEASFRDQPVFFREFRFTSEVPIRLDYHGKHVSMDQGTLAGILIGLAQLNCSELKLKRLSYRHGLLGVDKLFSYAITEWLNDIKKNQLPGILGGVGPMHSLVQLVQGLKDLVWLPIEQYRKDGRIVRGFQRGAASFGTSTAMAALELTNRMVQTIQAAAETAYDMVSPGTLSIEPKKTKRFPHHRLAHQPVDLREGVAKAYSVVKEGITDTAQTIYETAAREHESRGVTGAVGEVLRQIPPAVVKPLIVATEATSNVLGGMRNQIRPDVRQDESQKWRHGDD

For test [1], the target named is HA-tagged RAB27A (Ras-related protein Rab-27A) (human) (UniProt P51159). The test is described as follows: affinity purification with mass spectrometry; 293T-REx cells inducibly expressing N-terminally HA-tagged baits; lysis in MCLB (50 mM Tris pH 7.4, 150 mM NaCl, 0.5% NP40); anti-HA-agarose, elution with HA peptide, trypsin, LC-MS/MS; CompPASS, HCIPs with WDN >=1 and APSM >=2.

The target in test [2] is HA-tagged MADD (MAP kinase activating death domain) (human) (UniProt Q8WXG6). The test is described as above.
The next test has as its target T1, HA-tagged RAB27B (human) (UniProt O00194).
T1 sequence: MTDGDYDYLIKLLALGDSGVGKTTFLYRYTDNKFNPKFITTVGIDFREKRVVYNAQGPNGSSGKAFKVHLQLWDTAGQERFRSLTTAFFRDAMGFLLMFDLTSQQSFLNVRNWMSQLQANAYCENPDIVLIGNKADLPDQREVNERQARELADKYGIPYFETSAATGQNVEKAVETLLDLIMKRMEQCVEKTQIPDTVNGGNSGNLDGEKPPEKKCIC
The description is as above.

In test [3] the target is T2, HA-tagged full-length SMCR8 (human) (UniProt Q8TEV9).
T2 sequence: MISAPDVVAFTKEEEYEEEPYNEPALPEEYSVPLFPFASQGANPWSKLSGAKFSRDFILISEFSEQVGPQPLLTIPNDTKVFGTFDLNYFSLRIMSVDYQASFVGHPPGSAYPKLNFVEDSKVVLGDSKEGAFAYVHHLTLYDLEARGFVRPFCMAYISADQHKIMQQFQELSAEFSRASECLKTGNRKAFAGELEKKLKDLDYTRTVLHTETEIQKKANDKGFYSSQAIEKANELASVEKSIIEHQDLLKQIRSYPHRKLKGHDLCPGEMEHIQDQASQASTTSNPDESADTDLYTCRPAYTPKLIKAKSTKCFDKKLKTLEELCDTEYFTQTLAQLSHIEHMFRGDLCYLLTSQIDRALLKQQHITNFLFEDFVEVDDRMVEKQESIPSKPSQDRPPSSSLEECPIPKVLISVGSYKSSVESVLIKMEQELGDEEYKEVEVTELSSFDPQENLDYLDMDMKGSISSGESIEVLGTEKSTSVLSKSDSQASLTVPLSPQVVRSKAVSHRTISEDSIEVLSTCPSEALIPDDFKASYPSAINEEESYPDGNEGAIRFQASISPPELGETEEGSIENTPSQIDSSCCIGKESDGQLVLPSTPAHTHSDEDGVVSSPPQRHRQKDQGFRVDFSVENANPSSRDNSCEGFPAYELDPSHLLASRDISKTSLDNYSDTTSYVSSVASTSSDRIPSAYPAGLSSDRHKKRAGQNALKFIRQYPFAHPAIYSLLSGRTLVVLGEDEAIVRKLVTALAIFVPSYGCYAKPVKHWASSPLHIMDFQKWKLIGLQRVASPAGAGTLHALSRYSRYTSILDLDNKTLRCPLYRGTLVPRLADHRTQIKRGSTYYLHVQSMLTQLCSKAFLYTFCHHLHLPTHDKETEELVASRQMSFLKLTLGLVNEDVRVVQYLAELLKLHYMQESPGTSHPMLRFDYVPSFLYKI
The description is as above.

Test [4] addresses T3, HA-tagged SMCR8 fragment 1–700 (human) (UniProt Q8TEV9).
T3 sequence: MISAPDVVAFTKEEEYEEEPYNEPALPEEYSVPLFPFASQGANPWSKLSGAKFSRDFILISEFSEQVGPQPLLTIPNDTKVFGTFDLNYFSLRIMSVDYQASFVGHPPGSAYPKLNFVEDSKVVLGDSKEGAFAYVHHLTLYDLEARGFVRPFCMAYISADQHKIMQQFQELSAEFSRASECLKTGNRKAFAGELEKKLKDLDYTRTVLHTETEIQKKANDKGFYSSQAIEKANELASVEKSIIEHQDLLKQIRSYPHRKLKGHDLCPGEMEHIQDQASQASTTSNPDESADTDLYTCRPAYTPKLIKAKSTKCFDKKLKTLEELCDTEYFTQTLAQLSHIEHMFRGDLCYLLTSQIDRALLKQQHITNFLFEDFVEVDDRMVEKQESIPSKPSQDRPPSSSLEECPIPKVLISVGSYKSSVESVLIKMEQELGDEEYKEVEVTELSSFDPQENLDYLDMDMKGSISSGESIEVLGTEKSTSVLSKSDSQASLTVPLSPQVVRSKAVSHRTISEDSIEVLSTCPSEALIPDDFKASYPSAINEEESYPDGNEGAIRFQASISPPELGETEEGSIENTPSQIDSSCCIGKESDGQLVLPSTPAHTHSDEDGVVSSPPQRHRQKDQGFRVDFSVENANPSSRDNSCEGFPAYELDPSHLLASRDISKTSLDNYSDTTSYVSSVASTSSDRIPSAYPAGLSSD
The test is described as follows: affinity purification with mass spectrometry; 293T cells transiently transfected with HA-tagged full length SMCR8 or fragments; HA-IP followed by mass spectrometric analysis.

For test [5], the target named is T2, HA-tagged full-length SMCR8 (human). The test is described as above.

No constants are given. Whether binding was seen depends on the method and setting. In cells and extracts the contact can be indirect. A yes stands for co-enrichment or nearness to the bait. Other partners may have been found. For part of these data: Tags and fused reporters may be left off the sequences shown.

For the substance SYTL5 (from UniProt Q8TDW5 1-730), the binding entry in test [1] is on record as “binds”.
For PPP3CB (from UniProt P16298 1-524), the binding entry in test [2] was “binds”.
For the substance EXPH5 (from UniProt Q8NEV8 1-1989), the binding entry (in the test with HA-tagged RAB27B (human); in test [1]) was “binds” each time.
Consider TM9SF1 (from UniProt O15321 28-606), for which, in test [1], the binding entry is “binds”.
With “endogenous MADD (from UniProt Q8WXG6 1-1647)”, in the test with HA-tagged RAB27B (human), the binding entry is listed as “binds”.
For SYTL2 (from UniProt Q9HCH5 1-934), the binding entry with HA-tagged RAB27B (human) is given as “binds”.
For the substance “endogenous FIP200/RB1CC1 (focal adhesion kinase interacting protein of 200 kDa/RB1 inducible coiled-coil1) (from UniProt Q8TDY2 1-1594)”, the binding entry in test [3], in test [4] and in test [5] was “binds” throughout.
VMP1 (from UniProt Q96GC9 1-406): in test [1], the binding entry is recorded as “binds”.
Consider ATG2B (from UniProt Q96BY7 1-2078), for which the binding entry in test [1] is “binds”.
